Laboratory results taken from PMC7202509.
These are yes or no findings as the source states them, for the method shown. In cells and extracts the contact can be indirect. Some entries that bind do so weakly or less than the wild type.

Protein sequences, listed by entry. Tags and fused reporters are not part of them. Residues count along the entry.
UniProt P18065, residues 36-325: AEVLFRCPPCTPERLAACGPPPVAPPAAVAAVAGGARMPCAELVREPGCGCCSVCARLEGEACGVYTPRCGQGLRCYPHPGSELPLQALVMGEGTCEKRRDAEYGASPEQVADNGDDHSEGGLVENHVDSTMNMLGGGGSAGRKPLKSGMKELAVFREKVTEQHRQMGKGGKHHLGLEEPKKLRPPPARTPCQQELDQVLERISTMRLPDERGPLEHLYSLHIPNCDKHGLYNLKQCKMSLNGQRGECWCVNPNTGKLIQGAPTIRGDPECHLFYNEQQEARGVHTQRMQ
UniProt P38936: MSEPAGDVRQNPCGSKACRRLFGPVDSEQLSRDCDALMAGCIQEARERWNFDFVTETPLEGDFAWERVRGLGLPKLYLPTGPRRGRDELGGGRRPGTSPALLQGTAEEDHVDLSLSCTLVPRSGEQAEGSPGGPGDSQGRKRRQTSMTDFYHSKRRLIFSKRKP
UniProt P42771: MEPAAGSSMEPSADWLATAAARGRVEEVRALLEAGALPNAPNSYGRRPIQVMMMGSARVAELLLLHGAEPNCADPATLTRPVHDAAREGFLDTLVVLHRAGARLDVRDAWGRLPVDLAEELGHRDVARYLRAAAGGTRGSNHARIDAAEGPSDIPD

Experiments:
[1] = target: Insulin-like growth factor binding protein 2 (human (endogenous in psoriatic keratinocytes)) (UniProt P18065); test: co-IP; endogenous proteins in lysates of pso KC, left untreated or treated with M4 cytokines for 6 hours; EIA lysis buffer (250 mM NaCl, 50 mM Hepes pH 7.5, 0.1% NP-40, 5 mM EDTA); IP with anti-IGFBP2 or anti-p21 overnight, protein A/G beads, goat or mouse IgG as negative control; Western blot with anti-IGFBP2, -p21 or -p16
[2] = target: p21CIP1/WAF1 (human (endogenous in psoriatic keratinocytes)) (UniProt P38936); test: as above

binding [1]	binding [2]	Substance
no binding		p16INK4a (from UniProt P42771 1-156)
binds		p21CIP1/WAF1 (from UniProt P38936 1-164)
	binds	Insulin-like growth factor binding protein 2 (from UniProt P18065 36-325)
